PMC5133995
Results are given in words; binding and its absence hold for the method and conditions named. In cells and extracts the contact can be indirect. Some entries that bind do so weakly or less than the wild type.

Amino acid sequences for entries named in this document (tags omitted).
UniProt Q13164: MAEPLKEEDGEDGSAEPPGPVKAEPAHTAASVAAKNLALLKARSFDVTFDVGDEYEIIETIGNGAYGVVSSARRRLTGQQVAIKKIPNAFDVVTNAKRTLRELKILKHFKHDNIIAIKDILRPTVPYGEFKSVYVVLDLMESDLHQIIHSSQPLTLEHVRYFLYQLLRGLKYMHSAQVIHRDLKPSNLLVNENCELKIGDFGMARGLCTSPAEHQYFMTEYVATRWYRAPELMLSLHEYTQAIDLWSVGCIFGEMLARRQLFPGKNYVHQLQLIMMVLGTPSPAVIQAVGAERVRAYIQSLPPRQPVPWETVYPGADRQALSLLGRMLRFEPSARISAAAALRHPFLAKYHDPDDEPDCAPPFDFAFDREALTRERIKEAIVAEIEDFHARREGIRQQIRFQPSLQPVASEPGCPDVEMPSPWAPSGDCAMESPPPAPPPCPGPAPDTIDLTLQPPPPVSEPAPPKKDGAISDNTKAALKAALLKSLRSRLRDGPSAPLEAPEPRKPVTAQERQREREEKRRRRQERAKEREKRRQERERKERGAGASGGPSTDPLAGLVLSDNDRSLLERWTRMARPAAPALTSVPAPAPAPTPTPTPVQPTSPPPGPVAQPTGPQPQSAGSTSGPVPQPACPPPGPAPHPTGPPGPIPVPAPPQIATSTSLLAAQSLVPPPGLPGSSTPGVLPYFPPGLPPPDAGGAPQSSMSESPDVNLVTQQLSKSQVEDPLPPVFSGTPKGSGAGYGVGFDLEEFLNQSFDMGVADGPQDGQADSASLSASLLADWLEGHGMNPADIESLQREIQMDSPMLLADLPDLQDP

Target: cyclin-dependent kinase 5 (CDK5) (human (endogenous in HCT116)) (UniProt Q00535)
Test: co-IP; endogenous proteins in non-transfected HCT116 cells; RIPA lysate, precleared with protein A+G agarose, immunoprecipitated with 2 ug anti-IgG, anti-CDK5 or anti-ERK5 and protein G-agarose overnight at 4 °C; washed three times with PBS; western blotting

binding: binds
Substance: ERK5 (from UniProt Q13164 1-816) (enzyme)
